Measurements reported in PubChem BioAssay AID1508597 (Cure First, 2020)
Shown is an unselected part of the about 2,100 reagents, in one setting of the screen. 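Calls flag viability under 80% in either arm, not effects specific to rucaparib; the reference for percent is not stated.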 Entries without a mark were called inactive. Some reagents were tested in more than one well and are listed for each. Not given: the 100% reference.

Screen: 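Genes whose silencing sensitises or protects ovarian cancer cells against rucaparib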 (primary screen)
Cells: human ovarian carcinoma lines grown from tumours: OCI-P5x (papillary serous) and OCI-C5x (clear cell)
Reagents: siRNA pool against human genes, 1.25 pmol siRNA per well
Time to read-out: 72 h or 96 h, depending on the cell culture
Challenge: rucaparib 20 µM (about IC30) or vehicle, present until read-out
Rucaparib or vehicle: Vehicle
Cell line: OCI-P5x (serous)
Read-out: 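Luminescent ATP-based viability assay read 72 or 96 h after transfection, depending on culture, given as normalised percent viability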
Scale: viability, normalised: higher = more viable cells remaining
Rule for the call: 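a well counts as a hit if its normalised viability is under 80 percent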
Calls: active = viability under 80%; inactive = viability 80% or more

TERT, technical replicate 1: viability, normalised (%) = 71.9 (active)
TERT, technical replicate 2: viability, normalised (%) = 70.6 (active)
TERT, technical replicate 3: viability, normalised (%) = 65 (active)
RIPK3, technical replicate 1: viability, normalised (%) = 92.9
RIPK3, technical replicate 2: viability, normalised (%) = 78.6 (active)
RIPK3, technical replicate 3: viability, normalised (%) = 73.8 (active)

2 entries from above, set out differently.
| target gene | technical replicate | viability, normalised (%) |
| --- | --- | --- |
| TERT | 3 | 65 (active) |
| RIPK3 | 1 | 92.9 |

More results follow.
MED11, technical replicate 1: viability, normalised (%) = 61 (active)
MED11, technical replicate 2: viability, normalised (%) = 55.7 (active)
MED11, technical replicate 3: viability, normalised (%) = 69.7 (active)
KIF18A, technical replicate 1: viability, normalised (%) = 33.6 (active)
KIF18A, technical replicate 1: viability, normalised (%) = 62.3 (active)
KIF18A, technical replicate 2: viability, normalised (%) = 54.1 (active)
KIF18A, technical replicate 2: viability, normalised (%) = 37.1 (active)
KIF18A, technical replicate 3: viability, normalised (%) = 35.4 (active)
KIF18A, technical replicate 3: viability, normalised (%) = 64.2 (active)
